Each structure is given as a SMILES string. The entries are a selection whose mix differs from that of the whole data set. The calls were merged from several studies; some rest on single wells. The list shows a part of the results. This is one part of the list.

Amino acid sequences for entries named in this document (tags omitted). A change or cut given only in a name is not applied to a line headed by its entry.
UniProt Q8VFV4: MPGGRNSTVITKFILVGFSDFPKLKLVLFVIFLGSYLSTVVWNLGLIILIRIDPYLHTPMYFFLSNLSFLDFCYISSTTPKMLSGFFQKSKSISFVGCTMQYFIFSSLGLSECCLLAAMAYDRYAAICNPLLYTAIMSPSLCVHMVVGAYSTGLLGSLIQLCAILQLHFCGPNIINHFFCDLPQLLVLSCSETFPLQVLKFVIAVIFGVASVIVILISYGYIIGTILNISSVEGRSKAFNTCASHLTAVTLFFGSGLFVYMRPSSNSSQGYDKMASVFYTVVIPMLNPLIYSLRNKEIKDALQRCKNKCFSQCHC
UniProt Q7TS48: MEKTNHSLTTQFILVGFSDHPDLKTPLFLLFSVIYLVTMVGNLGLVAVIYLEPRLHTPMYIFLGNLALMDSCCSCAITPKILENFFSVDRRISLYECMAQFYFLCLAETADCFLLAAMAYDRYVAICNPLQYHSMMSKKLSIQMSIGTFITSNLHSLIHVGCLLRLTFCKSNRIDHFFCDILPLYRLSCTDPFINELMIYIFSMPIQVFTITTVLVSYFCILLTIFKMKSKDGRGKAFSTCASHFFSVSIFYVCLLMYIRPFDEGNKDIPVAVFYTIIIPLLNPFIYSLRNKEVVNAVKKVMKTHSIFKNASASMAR

The values that follow come from the M2OR odorant receptor database.

Common to all, as to settings: stereoisomer not certain
One assay concerns T1, OR9G4.
T1 sequence (whole entry): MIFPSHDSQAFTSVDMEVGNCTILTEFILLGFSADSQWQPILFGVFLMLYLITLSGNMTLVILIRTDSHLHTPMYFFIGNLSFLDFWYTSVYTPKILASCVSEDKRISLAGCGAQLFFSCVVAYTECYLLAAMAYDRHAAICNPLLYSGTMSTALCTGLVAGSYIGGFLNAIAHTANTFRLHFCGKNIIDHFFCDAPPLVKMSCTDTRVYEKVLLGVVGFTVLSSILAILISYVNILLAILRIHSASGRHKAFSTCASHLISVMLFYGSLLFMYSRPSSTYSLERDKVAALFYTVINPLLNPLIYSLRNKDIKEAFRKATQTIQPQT
The gist of the method: (§1)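 Whether a receptor–molecule pair is responsive (active) rests on the original authors' judgment that its measured signal was statistically different from baseline. Pairs without that judgment are non-responsive (inactive). Sources used varied assay methods, commonly transient luciferase assays in mammalian cell lines.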

For assay [1], the system named is T2, OR9G9.
T2 sequence (whole entry): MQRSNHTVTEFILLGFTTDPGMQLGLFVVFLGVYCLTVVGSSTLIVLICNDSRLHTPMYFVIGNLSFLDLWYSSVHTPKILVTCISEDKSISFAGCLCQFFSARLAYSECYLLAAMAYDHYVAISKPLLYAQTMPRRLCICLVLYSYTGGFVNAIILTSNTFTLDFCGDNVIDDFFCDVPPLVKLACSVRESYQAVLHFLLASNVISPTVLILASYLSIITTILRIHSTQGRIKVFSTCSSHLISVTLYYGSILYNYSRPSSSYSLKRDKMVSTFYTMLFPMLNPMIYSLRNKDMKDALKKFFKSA
The gist of the method:
as §1

Assay [2] deals with T3, OR9G9.
T3 sequence (whole entry): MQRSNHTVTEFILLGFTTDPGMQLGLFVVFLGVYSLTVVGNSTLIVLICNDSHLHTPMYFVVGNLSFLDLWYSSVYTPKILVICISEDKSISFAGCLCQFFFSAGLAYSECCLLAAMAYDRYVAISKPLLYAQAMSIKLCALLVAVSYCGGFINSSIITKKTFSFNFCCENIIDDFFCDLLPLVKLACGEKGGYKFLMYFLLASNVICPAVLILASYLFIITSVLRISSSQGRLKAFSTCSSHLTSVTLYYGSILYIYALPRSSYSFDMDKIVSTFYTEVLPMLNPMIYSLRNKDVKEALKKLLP
The method in brief: as §1
The source holds these as a separate data set.

The target in the next assay is T4, OR9I1 (Homo sapiens) (UniProt Q8NGQ6).
T4 sequence (whole entry): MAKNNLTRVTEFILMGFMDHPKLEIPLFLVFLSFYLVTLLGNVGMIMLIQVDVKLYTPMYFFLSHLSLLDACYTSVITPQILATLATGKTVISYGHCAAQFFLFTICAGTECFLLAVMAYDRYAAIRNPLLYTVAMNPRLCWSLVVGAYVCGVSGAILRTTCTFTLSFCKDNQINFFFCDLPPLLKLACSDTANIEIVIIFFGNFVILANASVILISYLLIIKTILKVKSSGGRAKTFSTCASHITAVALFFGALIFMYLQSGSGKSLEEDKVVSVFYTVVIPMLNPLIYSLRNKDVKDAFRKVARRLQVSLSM
The method in brief: as §1

In the next assay the target is T5, OR9K2 (Homo sapiens) (UniProt Q8NGE7).
T5 sequence (whole entry): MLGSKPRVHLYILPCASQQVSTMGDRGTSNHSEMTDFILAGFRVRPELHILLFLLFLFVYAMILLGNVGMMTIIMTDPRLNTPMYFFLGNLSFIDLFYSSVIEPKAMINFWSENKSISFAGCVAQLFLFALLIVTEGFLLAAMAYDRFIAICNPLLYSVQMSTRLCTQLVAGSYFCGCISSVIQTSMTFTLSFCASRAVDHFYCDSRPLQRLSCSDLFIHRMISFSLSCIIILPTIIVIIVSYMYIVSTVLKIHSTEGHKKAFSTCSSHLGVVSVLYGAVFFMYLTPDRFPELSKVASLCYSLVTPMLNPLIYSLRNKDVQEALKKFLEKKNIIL
The method in brief: as §1

The next assay relates to T6, OR9Q1.
T6 sequence (whole entry): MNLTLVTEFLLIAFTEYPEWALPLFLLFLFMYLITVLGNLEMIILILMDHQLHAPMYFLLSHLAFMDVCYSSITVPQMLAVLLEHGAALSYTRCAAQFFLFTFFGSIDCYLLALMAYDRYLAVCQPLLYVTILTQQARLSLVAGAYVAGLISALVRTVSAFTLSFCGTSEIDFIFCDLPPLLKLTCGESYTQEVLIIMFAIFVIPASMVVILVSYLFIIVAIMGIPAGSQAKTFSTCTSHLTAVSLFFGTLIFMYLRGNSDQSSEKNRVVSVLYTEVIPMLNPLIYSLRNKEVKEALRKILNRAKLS
The method in brief: as §1

Another assay has as its target T7, OR9Q2 (Homo sapiens) (UniProt Q8NGE9).
T7 sequence (whole entry): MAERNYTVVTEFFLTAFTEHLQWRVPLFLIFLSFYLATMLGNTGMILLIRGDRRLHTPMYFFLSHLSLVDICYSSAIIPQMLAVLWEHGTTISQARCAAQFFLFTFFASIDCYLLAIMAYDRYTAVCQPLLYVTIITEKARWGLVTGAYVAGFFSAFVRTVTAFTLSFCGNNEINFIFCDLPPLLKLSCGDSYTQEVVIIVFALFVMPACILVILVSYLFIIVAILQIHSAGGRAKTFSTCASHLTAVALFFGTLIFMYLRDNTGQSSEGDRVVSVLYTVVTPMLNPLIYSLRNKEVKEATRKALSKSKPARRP
The method in brief:
as §1

The subject of a further assay is T8, OR9Q2.
T8 sequence (whole entry): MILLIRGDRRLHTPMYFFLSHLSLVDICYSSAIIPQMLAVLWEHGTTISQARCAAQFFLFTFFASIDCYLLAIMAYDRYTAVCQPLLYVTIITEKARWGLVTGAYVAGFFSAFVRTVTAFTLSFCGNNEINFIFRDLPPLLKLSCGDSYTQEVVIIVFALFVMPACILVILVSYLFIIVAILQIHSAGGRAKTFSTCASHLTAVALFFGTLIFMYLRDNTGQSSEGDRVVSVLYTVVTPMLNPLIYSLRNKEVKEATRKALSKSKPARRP
The method in brief: as §1

A further assay concerns T9, ORM2B.
T9 sequence (whole entry): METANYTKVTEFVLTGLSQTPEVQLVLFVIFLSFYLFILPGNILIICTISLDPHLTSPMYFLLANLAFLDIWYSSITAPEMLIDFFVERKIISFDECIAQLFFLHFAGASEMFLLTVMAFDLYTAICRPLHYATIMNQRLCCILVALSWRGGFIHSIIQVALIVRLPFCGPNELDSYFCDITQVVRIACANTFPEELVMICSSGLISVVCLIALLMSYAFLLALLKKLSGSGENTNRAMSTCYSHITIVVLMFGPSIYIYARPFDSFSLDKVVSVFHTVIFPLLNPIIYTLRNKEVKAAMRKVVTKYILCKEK
The gist of the method: as §1

A further assay concerns the target T10, Or1m1 (Mus musculus) (UniProt Q8VFM9).
T10 sequence (whole entry): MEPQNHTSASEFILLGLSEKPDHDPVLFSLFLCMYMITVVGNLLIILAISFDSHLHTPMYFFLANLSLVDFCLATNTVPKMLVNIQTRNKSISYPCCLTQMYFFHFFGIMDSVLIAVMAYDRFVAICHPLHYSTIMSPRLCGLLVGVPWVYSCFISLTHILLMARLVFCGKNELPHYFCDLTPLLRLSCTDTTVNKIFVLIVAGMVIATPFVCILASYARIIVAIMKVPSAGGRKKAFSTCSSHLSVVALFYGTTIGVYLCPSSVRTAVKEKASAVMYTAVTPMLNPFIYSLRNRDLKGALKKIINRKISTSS
The method in brief:
as §1

A further assay concerns the target T11, Or5ar1 (Mus musculus) (UniProt Q8VGS3).
T11 sequence (whole entry): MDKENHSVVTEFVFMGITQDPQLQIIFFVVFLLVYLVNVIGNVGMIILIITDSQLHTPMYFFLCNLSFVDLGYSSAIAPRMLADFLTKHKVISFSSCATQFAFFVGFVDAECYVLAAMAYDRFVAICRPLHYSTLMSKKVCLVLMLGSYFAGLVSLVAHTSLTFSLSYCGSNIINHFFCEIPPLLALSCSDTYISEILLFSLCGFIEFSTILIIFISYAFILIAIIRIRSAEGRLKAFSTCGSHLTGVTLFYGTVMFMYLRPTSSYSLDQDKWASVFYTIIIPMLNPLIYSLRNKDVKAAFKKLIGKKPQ
The method in brief: as §1

The target in another assay is T12, Or10j5 (Mus musculus) (UniProt Q62007).
T12 sequence (whole entry): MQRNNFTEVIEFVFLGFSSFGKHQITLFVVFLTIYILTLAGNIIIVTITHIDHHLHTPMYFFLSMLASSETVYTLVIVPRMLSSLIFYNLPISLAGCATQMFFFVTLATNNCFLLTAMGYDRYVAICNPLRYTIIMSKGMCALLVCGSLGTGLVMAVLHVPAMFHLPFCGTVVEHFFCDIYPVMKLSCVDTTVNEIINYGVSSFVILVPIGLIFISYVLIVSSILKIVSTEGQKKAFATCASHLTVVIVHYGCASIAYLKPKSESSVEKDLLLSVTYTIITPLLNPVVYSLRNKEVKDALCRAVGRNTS
The gist of the method:
as §1

The target in another assay is T13, Or2c1 (Mus musculus) (UniProt P23275).
T13 sequence (whole entry): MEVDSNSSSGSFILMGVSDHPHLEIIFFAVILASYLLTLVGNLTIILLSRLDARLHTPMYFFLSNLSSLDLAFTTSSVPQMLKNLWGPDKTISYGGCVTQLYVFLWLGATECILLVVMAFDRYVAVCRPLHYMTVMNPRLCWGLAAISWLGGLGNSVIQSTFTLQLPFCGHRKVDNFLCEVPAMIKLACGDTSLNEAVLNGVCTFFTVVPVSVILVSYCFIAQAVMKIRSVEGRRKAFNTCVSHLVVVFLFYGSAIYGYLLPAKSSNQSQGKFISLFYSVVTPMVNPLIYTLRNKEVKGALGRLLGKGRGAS
The method in brief:
as §1

A further assay deals with Or5an6 (Mus musculus) (UniProt Q8VFV4). The gist of the method:
as §1

A further assay concerns the target Or5k16 (Mus musculus) (UniProt Q7TS48). The gist of the method: as §1
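Further: active if original authors judged signal statistically different from baseline.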

`COc1ccccc1O`: the “odorant receptor agonist call” value with OR9G4, with OR9G9 [1], in the assay on OR9G9 [2], with OR9I1 (Homo sapiens), in the assay with OR9K2 (Homo sapiens) and in the assay on OR9Q1 was “inactive” each time. For the same molecule, the “odorant receptor agonist call” value with OR9Q2 (Homo sapiens), with OR9Q2, in the assay on ORM2B, with Or1m1 (Mus musculus) and with Or5ar1 (Mus musculus) was “inactive” each time.
Take `CC12CCC(CC1)C(C)(C)O2`: the “odorant receptor agonist call” value in the assay on OR9G4, in the assay on OR9G9 [1], in the assay with OR9G9 [2], in the assay with OR9I1 (Homo sapiens), in the assay with OR9K2 (Homo sapiens) and in the assay with OR9Q1 was “inactive” in each case. Also, the “odorant receptor agonist call” value with OR9Q2 (Homo sapiens), in the assay with OR9Q2, in the assay with ORM2B, in the assay with Or1m1 (Mus musculus) and with Or5ar1 (Mus musculus) was “inactive” in each case.
With `CCCCCOC(C)=O`, the “odorant receptor agonist call” value with OR9G4 and in the assay with OR9G9 [2] was “active” throughout. Also, the “odorant receptor agonist call” value in the assay on OR9G9 [1], with OR9I1 (Homo sapiens), in the assay with OR9K2 (Homo sapiens), with OR9Q1, in the assay with OR9Q2 (Homo sapiens) and in the assay with OR9Q2 was “inactive” throughout. Besides, the “odorant receptor agonist call” value in the assay on ORM2B, with Or10j5 (Mus musculus), with Or1m1 (Mus musculus) and with Or5ar1 (Mus musculus) was “inactive” in each case.
In the case of `C=C(C)C1CC=C(C)C(=O)C1` (centres undefined), the “odorant receptor agonist call” value with Or10j5 (Mus musculus), with Or1m1 (Mus musculus), with Or2c1 (Mus musculus) and with Or5ar1 (Mus musculus) was “inactive” in each case.
As for `O=C1CCCCC1`, the “odorant receptor agonist call” value in the assay on OR9G4, in the assay with OR9G9 [2] and with Or2c1 (Mus musculus) was “active” in each case. The “odorant receptor agonist call” value in the assay with OR9G9 [1], with OR9I1 (Homo sapiens), with OR9K2 (Homo sapiens), with OR9Q2 (Homo sapiens), in the assay with OR9Q2 and in the assay with ORM2B was “inactive” throughout. Moreover, the “odorant receptor agonist call” value with Or5an6 (Mus musculus) and in the assay with Or5ar1 (Mus musculus) was “inactive” throughout.
For `C=CCc1ccc(O)c(OC)c1`, the “odorant receptor agonist call” value in the assay with Or10j5 (Mus musculus), with Or1m1 (Mus musculus) and with Or5ar1 (Mus musculus) was “inactive” throughout.
Consider `C=CCc1ccc(OC)c(OC)c1`, for which the “odorant receptor agonist call” value in the assay on OR9G4, in the assay with OR9G9 [1], in the assay with OR9G9 [2], with OR9I1 (Homo sapiens), with OR9K2 (Homo sapiens) and in the assay on OR9Q1 was “inactive” throughout. In addition, the “odorant receptor agonist call” value with OR9Q2 (Homo sapiens), with OR9Q2, in the assay with ORM2B, with Or1m1 (Mus musculus), in the assay with Or5ar1 (Mus musculus) and in the assay with Or5k16 (Mus musculus) was “inactive” each time.
